# According to US8466195B2, “Methods and compositions for treating complications of diabetes and vascular diseases using flavones” (Salk Institute for Biological Studies, priority 2009, dated 2013):
# Tested on: C57BL/6 control mice
# Test: Metabolic parameters of wild type mice
# Format: in vivo
# Settings: fisetin 0.05% in diet, 24 weeks of age
smiles,measurement,setting,value
"O=c1c(O)c(-c2ccc(O)c(O)c2)oc2cc(O)ccc12 [fisetin, 2-(3,4-dihydroxyphenyl)-3,7-dihydroxychromen-4-one]",Blood Glucose,,73.0 ± 29
same,HbA1c,,5.2 ± 0.4
same,Weight,,32.8 ± 3.1
same,Blood Glucose,listed as Fisetin,no effect
same,HbA1c,listed as Fisetin,no effect
same,Weight,listed as Fisetin,no effect
